In patent publication US20150320880A1, “ANTIBODY DRUG CONJUGATES” (NOVARTIS AG, priority 2013, published 2015) one finds binding data, which are given here for one molecule.

Amino acid sequences for entries named in this document (tags omitted). A change or cut given only in a name is not applied to a line headed by its entry. Chains listed by the source or under a name are the forms on record and can include a tag or linker.
mutant human cKIT on GIST-T1 cells (P10721, form named): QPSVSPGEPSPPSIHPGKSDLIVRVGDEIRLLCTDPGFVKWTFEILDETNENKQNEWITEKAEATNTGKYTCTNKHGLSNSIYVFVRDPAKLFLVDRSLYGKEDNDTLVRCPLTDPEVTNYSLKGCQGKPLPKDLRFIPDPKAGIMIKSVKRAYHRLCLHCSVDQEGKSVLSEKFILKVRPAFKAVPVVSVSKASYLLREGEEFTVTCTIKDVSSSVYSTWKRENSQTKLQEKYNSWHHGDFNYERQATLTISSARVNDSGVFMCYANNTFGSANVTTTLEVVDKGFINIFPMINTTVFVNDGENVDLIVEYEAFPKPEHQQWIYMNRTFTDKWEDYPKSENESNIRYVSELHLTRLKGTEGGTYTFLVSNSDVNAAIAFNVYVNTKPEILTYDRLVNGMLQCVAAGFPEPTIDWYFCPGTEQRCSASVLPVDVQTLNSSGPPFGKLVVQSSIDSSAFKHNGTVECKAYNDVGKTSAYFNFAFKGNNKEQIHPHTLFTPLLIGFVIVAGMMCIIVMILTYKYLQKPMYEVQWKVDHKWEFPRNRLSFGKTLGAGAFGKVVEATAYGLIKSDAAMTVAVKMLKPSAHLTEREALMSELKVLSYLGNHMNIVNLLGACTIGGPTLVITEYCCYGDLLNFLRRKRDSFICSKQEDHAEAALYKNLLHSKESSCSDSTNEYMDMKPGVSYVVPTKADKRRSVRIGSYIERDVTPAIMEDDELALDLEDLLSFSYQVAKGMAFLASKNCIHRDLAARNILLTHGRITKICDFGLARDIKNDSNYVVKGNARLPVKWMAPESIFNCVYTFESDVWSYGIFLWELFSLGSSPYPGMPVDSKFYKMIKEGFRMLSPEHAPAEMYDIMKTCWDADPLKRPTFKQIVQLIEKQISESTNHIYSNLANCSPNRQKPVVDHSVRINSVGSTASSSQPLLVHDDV

The test deals with mutant human cKIT on GIST-T1 cells (human) (UniProt P10721). Kind of test: flow cytometry on GIST-T1 cells, 10 ug/ml antibody.

Results are given in words; binding and its absence hold for the method and conditions named. Some results given as binding are weak or reduced against the parent protein; the word gives no strength.

B1: NEG085 (antibody, human IgG1, kappa, V domains shown)
VH: EVQLVESGGGLVQPGGSLRLSCAASGFAFSGYYMAWVRQAPGKGLEWVANINYPGSSTYYLDSVKGRFTISRDNAKNSLYLQMNSLRAEDTAVYYCARGDYYGTTYWYFDVWGQGTTVTVSS
VL: DIQMTQSPSSLSASVGDRVTITCRASQSISSYLNWYQQKPGKAPKLLIYYTSRLQSGVPSRFSGSGSGTDFTLTISSLQPEDFATYYCQQGRRLWSFGGGTKVEIKR
notes: Humanized, optimized variant of 9P3; human IgG1 kappa; also called unconjugated NEG085
Regarding B1, the binding result is “binds”.
